{"source": "the supplement of paper PMC10338343", "note": "± gives the standard deviation. The list shows a part of the results. Many of these values have a large error."}
{"system": "EfPiwi piRISC loaded with L1MC piRNA (26 nt)", "assay": "pre-steady-state target cleavage rate (min^-1); guide: L1MC piRNA 5'p-UAACUAAAUACUAUGCAAGCUGUAGG; MIWI and MILI are mouse PIWI proteins and EfPiwi is from a freshwater sponge; tags in brackets are library labels; higher = faster piRNA-guided slicing of the target", "conditions": "auxiliary factor: none (no Gtsf1)", "summary_of_the_method": "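Cleave-'n-Seq reactions paired 0.1 nM transcribed, DNA-blocked target RNA library with 1 nM active affinity-purified piRISC holding one synthetic guide, plus or minus 500 nM GTSF1 partner protein, in HEPES–potassium acetate buffer at 33 °C for 0–8 or 0–960 min. After sequencing of uncleaved targets and normalisation to depth and weakly complementary targets, the pre-steady-state cleavage rate was taken from a burst-and-steady-state fit. Three trials were pooled, and k3 was capped at 0.0001 min^-1.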"}
{"sequence": "UCCUGGAACAGCUUGCUUAGUAUUUACAAA", "pre-steady-state target cleavage rate": "0.000501 ± 0.013"}
{"sequence": "UCCUGGAUGAGGUUGCAUUGUAUUUAGUUA", "pre-steady-state target cleavage rate": "0.000514 ± 0.017"}
{"sequence": "UCCUGGAUGAGGUUGGAUAGUAUUUAGUUA", "pre-steady-state target cleavage rate": "0.000418 ± 0.02"}
{"sequence": "UCCUGGAUGUCGUUGCAUAGUACUUAGUUA", "pre-steady-state target cleavage rate": "0.00147 ± 0.0065"}
{"sequence": "UCCUGGAUGUCGAAGCAUAGUAGUUUAGUUA", "pre-steady-state target cleavage rate": "0.000409 ± 0.016"}
{"sequence": "UCCUGGUACAGCUACCAUAGUAUUUACAAA", "pre-steady-state target cleavage rate": "0.00031 ± 0.023"}
{"sequence": "UCCUGCUUCAGCUUCCAUAGUAUUUAGUUA", "pre-steady-state target cleavage rate": "0.000532 ± 0.011"}
{"sequence": "UCCUGGAACAGCUUCCAUUGUAUUUAGUUA", "pre-steady-state target cleavage rate": "0.00044 ± 0.018"}
{"sequence": "UCCUGGAUGUCGAUGCAUCGUAUUUAGUUA", "pre-steady-state target cleavage rate": "< 0.0001"}
{"sequence": "UCCUGGAUGAGCUUGCAUAGUAAAAAGUUA", "pre-steady-state target cleavage rate": "0.000957 ± 0.013"}
{"sequence": "UCCUGGAUGUCGUUGCAUAGUAUUUUGUUA", "pre-steady-state target cleavage rate": "0.000214 ± 0.043"}
{"sequence": "UCCUGGAUGUCCUUGCAUACUAUUAAGUUA", "pre-steady-state target cleavage rate": "0.000287 ± 0.015"}
{"sequence": "UCCUGGAUGAGGUUGCAUAGUAAUUAGUUA", "pre-steady-state target cleavage rate": "0.000699 ± 0.019"}
{"sequence": "UCCUGCUACAGCUUGCAUACAAUUUAGUUA", "pre-steady-state target cleavage rate": "0.000438 ± 0.01"}
{"sequence": "UCCUGGUACAGCUUCGUUAGUAUUUAGUAA", "pre-steady-state target cleavage rate": "0.000353 ± 0.024"}
{"sequence": "UCCUGGAUGUCGAUGCAUAGUGUUUAGUUA", "pre-steady-state target cleavage rate": "0.00112 ± 0.0098"}
{"sequence": "UCCUGCUACAGCUUGCAUAGUAUUAGUUA", "pre-steady-state target cleavage rate": "0.000518 ± 0.0096"}
{"sequence": "UCCUGGAACAGCUUGCAUAGUAAUUUCAAA", "pre-steady-state target cleavage rate": "0.000409 ± 0.011"}
{"sequence": "UCCUGGAUCAGCUAGCAUAGUAUUUAGAAA", "pre-steady-state target cleavage rate": "0.000227 ± 0.032"}
{"sequence": "UCCUGGAUGUCGUUGCAAAGUAUUUAGUUA", "pre-steady-state target cleavage rate": "0.00013 ± 0.072"}
{"sequence": "UCCUGGAUGUCGUUGCAUAUUAUUUAGUUA", "pre-steady-state target cleavage rate": "0.00061 ± 0.014"}
{"sequence": "UCCUGGAACAGCUUCGUUAGUAUUUAGUUA", "pre-steady-state target cleavage rate": "0.000147 ± 0.042"}
{"sequence": "UCCUCCUACACCUUCCAUAGUAUUUAGUUA", "pre-steady-state target cleavage rate": "< 0.0001"}
{"sequence": "UCCUGGAUGAGCUUGGUUAGUAUUUAGUAA", "pre-steady-state target cleavage rate": "0.000621 ± 0.013"}
{"sequence": "UCCUGGAUGAGGAAGCAUAGUAUUUAGUUA", "pre-steady-state target cleavage rate": "0.000394 ± 0.019"}
{"sequence": "UCCUGGAUGUGCUUGCAUACUAAUUAGUUA", "pre-steady-state target cleavage rate": "0.000306 ± 0.023"}
{"sequence": "UCCUGGAACAGCUUGCAUAGUAAAAAGUAA", "pre-steady-state target cleavage rate": "0.000353 ± 0.024"}
{"sequence": "UCCUCCUACAGCUUGCUAAGUAUUUACAAA", "pre-steady-state target cleavage rate": "0.00047 ± 0.0095"}
{"sequence": "UCCUGGAUGUCCUUCAUAGUAUUUAGUUA", "pre-steady-state target cleavage rate": "0.000333 ± 0.023"}
{"sequence": "UCCUGGAUGAGUUGCAUAGUAUUUAGUUA", "pre-steady-state target cleavage rate": "0.000669 ± 0.011"}
{"sequence": "UCCUGGAUGUGCAUGGAUAGUAUUUAGUUA", "pre-steady-state target cleavage rate": "0.000928 ± 0.011"}
{"sequence": "UCCUGGAUGACCUUGCAUAGUAUUAAGUUA", "pre-steady-state target cleavage rate": "0.000783 ± 0.015"}
{"sequence": "UCCUGGAUGUCCUUGCAUAGUAUAUAGAUA", "pre-steady-state target cleavage rate": "0.000115 ± 0.073"}
{"sequence": "UCCUCCUACAGCUUGGUUAGUAUUUAGAAA", "pre-steady-state target cleavage rate": "0.000171 ± 0.029"}
{"sequence": "UCCUGGAACAGCUUGCUAGUAUUUAGUUA", "pre-steady-state target cleavage rate": "0.00151 ± 0.0067"}
{"sequence": "UCCUGGAUGUCGUUGCAUAGUAUUUAGUUG [g2:g18:cont:t1G]", "pre-steady-state target cleavage rate": "0.000189 ± 0.051"}
{"sequence": "UCCUGGAUGUCGAAGCAUAGUAUAUUAGUUA", "pre-steady-state target cleavage rate": "< 0.0001"}
{"sequence": "UCCUGGAUCAGGAUGCAUAGUAUUUAGUAA", "pre-steady-state target cleavage rate": "0.000109 ± 0.056"}
{"sequence": "UCCUGGAUGUCGAAGCUAUGUAUUUAGUUA", "pre-steady-state target cleavage rate": "0.00028 ± 0.016"}
{"sequence": "UCCUGGAACAGCUUCCAUAGUAUUAAGUUA", "pre-steady-state target cleavage rate": "< 0.0001"}
